Results deposited as PubChem BioAssay AID1259254 (NCATS, 2017)

- Screen: 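Genome-wide screen for genes that prevent DNA re-replication in cancer cells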 (primary screen)
- System: human HCT116 colorectal cancer cells
- Knock-down reagent: single siRNA against human genes
- Duration: 3 days
- Detection: 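Nuclei stained with Hoechst and imaged; cell-cycle phase assigned by DNA content; G2 share scaled per plate, non-targeting siRNA 0%, GMNN siRNA 100%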
- Scale: G2 robust z-score and G2 cells, % of GMNN control: higher = more G2 cells, more excess DNA replication; raw share of cells in G2: higher = larger share of cells with G2 DNA content
- Active means: 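Active siRNAs have a G2 robust z of 5 or more median absolute deviations over the median, which in these data means about 38% or higher of GMNN control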
Shown is a random part of about 59,000 reagents. About 1,550 of them (2.6%) were called active. 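G2 share is only a proxy for re-replication; each gene was hit by three separate siRNAs, and active genes were retested.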 The raw values are shown without normalisation. A number with no mark means an inactive call. The numbers tell different reagents against one gene apart. Reagent sequences are not shown. The record does not give: the amount of reagent.

| gene knocked down | siRNA no. | G2 robust z-score | G2 cells, % of GMNN control | raw share of cells in G2 (%) |
| --- | --- | --- | --- | --- |
| NAGA | 1 | 1.57 | 14 | 11 |
| NAGA | 2 | -0.632 | -1.48 | 2.71 |
| NAGA | 3 | 1.01 | 10 | 9.24 |
| FLAD1 | 1 | 2.63 | 21.5 | 14.4 |
| FLAD1 | 2 | 0.0616 | 3.4 | 5.43 |
| FLAD1 | 3 | -0.937 | -3.63 | 3.44 |
| SERPINF1 | 1 | -0.569 | -1.04 | 4.46 |
| SERPINF1 | 2 | 0.75 | 8.25 | 6.79 |
| SERPINF1 | 3 | -0.747 | -2.29 | 2.81 |
| KRT40 | 1 | -0.8 | -2.66 | 3.47 |
| KRT40 | 2 | -0.985 | -3.96 | 3.27 |
| KRT40 | 3 | -0.65 | -1.6 | 4.93 |
| UNC13C | 1 | -0.862 | -3.1 | 4.56 |
| UNC13C | 2 | 0.352 | 5.44 | 7.08 |
| UNC13C | 3 | 0.676 | 7.72 | 7.1 |
| CAPZA1 | 1 | 0.349 | 5.42 | 6.01 |
| CAPZA1 | 2 | 0.992 | 9.95 | 8.11 |
| CAPZA1 | 3 | -0.21 | 1.49 | 5.6 |

The list goes on (4 carried over from the part before).
| gene knocked down | siRNA no. | G2 robust z-score | G2 cells, % of GMNN control | raw share of cells in G2 (%) |
| --- | --- | --- | --- | --- |
| UNC13C | 3 | 0.676 | 7.72 | 7.1 |
| CAPZA1 | 1 | 0.349 | 5.42 | 6.01 |
| CAPZA1 | 2 | 0.992 | 9.95 | 8.11 |
| CAPZA1 | 3 | -0.21 | 1.49 | 5.6 |
| FGD6 | 1 | -0.843 | -2.96 | 3.38 |
| FGD6 | 2 | 1.17 | 11.2 | 9 |
| FGD6 | 3 | 2.65 | 21.6 | 15.9 |
| RASA1 | 1 | 1.48 | 13.4 | 9.57 |
| RASA1 | 2 | -0.291 | 0.917 | 5.03 |
| RASA1 | 3 | 2.17 | 18.2 | 10.2 |
| RABGAP1L | 1 | 0.375 | 5.61 | 7.86 |
| RABGAP1L | 2 | 0.942 | 9.6 | 7.95 |
| RABGAP1L | 3 | -0.622 | -1.41 | 2.89 |
| E2F5 | 1 | -0.572 | -1.05 | 4.86 |
| E2F5 | 2 | -0.396 | 0.181 | 3.72 |
| E2F5 | 3 | 4.23 | 32.7 | 17.1 |
